The list shows a part of the results.
How the values were obtained:
Experiment in all cases: log2 fold change, soluble protein after heating vs DMSO (PISA); higher = thermal stabilisation; K562 cells, 10 uM, 30 min; active = over 0.2 and 3.5 SD of the protein, either way, in both replicates (recomputed)
erlotinib = compound: C#Cc1cccc(Nc2ncnc3cc(OCCOC)c(OCCOC)cc23)c1 [erlotinib]
How it was run: (§1)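 Soluble protein was defined as the supernatant after 21,000xg for 90 min. It came from K562 cells at 2×10^6 cells/mL given 10 μM compound for 30 min, heated in aliquots for 3 min across 48°C-58°C, pooled, and extracted in PBS with 0.5% NP-40 at 4°C, and was quantified by TMTpro 16plex LC-MS/MS with equalised channel sums. Thermal stability against control samples, from duplicates, is reported as log2 fold change.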

The chains behind the UniProt entries cited, without tags or fusion partners. Where a name states a change or a piece, a line headed by the entry shows the natural chain unless it says otherwise.
UniProt Q7Z7N9: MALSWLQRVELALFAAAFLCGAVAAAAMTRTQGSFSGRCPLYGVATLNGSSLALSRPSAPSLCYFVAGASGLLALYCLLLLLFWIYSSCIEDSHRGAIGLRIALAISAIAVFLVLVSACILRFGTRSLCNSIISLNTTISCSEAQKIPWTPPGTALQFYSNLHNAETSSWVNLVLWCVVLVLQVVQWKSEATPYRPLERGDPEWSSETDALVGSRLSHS
UniProt P28289: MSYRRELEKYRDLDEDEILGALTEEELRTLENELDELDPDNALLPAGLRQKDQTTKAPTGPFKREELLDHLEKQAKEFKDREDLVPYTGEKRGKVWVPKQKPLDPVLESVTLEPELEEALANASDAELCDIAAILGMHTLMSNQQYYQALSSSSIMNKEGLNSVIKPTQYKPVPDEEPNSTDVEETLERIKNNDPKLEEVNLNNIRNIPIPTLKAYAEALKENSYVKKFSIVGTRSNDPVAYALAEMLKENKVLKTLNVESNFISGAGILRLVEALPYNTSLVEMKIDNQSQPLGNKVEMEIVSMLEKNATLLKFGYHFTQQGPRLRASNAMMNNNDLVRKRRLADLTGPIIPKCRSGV
UniProt Q9NWH2: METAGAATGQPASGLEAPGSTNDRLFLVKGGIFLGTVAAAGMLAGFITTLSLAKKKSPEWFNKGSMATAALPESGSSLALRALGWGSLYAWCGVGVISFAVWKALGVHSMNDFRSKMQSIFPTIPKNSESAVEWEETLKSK
UniProt Q969X1: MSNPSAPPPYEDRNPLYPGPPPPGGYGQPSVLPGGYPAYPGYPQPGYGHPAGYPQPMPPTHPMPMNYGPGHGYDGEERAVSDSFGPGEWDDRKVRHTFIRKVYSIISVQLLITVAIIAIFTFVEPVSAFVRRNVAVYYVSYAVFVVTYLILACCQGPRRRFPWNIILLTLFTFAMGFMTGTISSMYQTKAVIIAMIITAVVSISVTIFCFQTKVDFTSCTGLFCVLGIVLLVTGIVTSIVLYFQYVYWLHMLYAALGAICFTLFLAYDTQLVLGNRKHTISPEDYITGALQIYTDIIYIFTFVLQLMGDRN
UniProt Q9BVK6: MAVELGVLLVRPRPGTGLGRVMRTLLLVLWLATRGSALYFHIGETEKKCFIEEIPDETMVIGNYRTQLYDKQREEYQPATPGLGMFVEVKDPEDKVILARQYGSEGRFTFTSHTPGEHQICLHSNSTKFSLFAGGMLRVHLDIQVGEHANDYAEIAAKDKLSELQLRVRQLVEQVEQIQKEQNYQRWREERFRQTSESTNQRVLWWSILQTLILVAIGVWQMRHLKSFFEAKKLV
UniProt Q9H0R3: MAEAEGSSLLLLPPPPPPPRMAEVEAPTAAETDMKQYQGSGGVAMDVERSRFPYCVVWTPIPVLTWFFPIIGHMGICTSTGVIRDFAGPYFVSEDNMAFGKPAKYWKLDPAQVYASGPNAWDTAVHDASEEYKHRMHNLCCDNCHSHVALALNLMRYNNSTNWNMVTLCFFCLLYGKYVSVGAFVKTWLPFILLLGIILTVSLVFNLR
UniProt Q9NQ34: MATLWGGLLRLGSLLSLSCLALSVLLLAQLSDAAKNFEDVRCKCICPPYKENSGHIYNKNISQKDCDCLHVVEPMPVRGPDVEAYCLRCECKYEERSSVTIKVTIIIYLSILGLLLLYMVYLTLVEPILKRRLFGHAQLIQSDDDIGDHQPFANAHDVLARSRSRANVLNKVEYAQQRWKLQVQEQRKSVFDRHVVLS
UniProt Q13829: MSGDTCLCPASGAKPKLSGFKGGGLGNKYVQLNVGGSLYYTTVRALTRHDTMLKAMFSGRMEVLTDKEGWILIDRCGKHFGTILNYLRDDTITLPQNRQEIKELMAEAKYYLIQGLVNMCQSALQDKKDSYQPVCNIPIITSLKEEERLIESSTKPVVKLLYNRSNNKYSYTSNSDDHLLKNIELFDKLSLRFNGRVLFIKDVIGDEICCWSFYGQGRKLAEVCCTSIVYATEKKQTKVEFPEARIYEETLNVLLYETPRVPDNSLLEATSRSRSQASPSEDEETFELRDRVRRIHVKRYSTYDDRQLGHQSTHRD
UniProt Q9Y4G6: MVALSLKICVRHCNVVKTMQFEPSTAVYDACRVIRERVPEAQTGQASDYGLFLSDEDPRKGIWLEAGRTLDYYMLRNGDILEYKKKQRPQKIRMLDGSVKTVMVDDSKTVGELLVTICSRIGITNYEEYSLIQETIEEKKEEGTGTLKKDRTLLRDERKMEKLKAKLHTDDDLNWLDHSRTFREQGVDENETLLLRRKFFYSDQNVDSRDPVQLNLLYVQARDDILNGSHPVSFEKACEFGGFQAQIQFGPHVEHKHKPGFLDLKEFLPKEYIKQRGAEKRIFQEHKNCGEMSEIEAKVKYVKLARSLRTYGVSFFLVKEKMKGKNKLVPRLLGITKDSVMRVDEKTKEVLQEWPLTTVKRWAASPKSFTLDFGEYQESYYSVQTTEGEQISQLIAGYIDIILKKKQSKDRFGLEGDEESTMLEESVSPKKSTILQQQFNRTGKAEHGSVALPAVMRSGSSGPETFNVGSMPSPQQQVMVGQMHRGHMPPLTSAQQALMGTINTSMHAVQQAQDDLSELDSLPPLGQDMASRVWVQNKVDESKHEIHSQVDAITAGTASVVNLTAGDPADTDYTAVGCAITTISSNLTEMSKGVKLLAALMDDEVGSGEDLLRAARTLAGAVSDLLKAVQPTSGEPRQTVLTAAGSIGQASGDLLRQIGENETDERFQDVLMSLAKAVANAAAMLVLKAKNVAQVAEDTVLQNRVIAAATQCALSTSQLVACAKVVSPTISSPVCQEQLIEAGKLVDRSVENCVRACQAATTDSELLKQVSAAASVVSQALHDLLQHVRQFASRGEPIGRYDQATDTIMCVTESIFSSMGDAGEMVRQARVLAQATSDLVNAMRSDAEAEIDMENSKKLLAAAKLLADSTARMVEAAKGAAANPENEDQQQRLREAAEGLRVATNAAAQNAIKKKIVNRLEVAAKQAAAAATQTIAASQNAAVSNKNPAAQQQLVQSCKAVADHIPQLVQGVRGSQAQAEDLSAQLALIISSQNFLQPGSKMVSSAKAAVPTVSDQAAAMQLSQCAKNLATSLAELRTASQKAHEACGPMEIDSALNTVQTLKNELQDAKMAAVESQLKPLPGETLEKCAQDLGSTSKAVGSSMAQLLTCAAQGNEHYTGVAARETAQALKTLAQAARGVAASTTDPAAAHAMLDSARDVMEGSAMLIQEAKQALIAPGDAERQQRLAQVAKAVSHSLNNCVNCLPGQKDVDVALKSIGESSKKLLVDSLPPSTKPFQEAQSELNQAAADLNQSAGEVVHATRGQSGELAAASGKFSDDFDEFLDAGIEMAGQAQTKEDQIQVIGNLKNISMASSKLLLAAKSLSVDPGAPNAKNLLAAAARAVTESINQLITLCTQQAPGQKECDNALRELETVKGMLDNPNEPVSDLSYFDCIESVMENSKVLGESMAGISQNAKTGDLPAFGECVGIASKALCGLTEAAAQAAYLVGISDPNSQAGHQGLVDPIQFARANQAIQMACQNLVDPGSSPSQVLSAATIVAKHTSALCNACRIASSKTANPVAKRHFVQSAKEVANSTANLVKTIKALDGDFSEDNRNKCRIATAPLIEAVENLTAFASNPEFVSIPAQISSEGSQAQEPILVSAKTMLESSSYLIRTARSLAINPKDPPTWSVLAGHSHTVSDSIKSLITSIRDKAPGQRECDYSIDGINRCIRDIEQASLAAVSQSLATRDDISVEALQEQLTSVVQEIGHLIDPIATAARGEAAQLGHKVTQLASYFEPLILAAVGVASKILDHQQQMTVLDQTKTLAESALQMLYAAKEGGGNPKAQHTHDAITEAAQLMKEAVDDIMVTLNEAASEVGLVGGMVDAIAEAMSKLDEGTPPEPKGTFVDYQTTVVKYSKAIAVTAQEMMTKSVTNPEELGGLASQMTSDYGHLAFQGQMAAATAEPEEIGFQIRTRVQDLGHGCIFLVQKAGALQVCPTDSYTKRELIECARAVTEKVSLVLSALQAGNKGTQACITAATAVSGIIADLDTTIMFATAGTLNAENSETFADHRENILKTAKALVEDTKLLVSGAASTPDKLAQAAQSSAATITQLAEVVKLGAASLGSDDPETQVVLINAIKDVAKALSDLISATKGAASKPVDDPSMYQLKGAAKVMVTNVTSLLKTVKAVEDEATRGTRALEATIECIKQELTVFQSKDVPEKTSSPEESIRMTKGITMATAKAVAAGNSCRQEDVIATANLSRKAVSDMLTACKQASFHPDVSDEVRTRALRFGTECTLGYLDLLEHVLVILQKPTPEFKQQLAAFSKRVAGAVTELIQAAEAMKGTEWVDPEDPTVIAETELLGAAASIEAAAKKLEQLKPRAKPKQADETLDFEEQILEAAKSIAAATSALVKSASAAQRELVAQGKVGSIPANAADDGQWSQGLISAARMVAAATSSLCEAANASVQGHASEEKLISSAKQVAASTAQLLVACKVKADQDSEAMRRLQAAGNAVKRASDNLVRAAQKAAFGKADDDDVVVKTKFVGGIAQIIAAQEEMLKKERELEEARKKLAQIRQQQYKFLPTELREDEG
UniProt Q9BXJ8: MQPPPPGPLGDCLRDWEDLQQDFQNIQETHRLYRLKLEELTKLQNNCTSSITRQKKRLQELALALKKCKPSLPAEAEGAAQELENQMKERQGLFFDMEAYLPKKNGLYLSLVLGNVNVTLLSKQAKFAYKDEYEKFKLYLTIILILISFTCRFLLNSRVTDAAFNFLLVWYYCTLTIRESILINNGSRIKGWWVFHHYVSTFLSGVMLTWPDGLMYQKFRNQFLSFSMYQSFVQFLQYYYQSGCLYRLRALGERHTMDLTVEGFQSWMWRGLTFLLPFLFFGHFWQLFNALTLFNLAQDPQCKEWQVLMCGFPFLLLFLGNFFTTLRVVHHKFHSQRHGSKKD
UniProt Q86WV6: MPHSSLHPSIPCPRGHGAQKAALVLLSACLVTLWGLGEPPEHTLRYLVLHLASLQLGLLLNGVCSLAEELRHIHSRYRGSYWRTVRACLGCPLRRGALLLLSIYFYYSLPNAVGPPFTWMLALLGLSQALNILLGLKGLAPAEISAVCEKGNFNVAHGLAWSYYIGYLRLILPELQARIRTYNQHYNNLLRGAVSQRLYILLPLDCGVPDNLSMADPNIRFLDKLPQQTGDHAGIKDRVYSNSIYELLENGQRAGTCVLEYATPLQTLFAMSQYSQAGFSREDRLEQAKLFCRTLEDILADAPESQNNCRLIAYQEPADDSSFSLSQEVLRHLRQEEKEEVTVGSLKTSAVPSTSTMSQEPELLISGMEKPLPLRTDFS
UniProt Q9H061: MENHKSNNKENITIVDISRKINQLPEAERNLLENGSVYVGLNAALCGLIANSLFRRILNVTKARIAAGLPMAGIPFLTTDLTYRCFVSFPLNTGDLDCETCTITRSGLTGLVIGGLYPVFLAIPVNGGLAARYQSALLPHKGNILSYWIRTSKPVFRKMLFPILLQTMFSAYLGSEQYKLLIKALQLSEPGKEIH
UniProt Q9UM00: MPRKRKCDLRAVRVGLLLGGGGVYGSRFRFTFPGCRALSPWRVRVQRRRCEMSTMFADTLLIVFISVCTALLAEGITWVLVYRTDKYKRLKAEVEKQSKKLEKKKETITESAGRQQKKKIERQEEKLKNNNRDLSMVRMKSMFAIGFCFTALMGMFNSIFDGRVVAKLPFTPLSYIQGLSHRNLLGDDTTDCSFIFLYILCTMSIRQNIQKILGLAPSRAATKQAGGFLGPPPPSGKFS
UniProt Q9NZR1: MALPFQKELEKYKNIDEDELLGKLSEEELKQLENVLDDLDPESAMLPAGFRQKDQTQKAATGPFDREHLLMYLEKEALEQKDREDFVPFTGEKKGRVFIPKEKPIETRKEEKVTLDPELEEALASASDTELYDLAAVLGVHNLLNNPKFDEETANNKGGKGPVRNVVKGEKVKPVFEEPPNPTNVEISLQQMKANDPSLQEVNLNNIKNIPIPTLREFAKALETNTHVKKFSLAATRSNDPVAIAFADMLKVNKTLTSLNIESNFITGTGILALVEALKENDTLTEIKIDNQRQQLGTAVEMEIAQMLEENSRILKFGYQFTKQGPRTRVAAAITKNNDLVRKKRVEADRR
UniProt Q96JJ7: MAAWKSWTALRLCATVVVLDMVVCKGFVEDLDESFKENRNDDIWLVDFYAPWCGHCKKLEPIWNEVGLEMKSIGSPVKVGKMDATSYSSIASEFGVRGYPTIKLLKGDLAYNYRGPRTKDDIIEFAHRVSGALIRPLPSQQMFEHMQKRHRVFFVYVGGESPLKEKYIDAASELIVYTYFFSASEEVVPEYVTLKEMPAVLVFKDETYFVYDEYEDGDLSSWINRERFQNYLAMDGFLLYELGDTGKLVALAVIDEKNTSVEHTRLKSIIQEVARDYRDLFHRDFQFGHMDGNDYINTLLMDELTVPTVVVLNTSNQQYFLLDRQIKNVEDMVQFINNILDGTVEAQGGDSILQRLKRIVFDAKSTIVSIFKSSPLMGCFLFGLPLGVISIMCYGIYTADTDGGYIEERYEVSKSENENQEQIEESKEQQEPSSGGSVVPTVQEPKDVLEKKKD

[1] = compound: C/C(=N\NC(=O)C1=CC(=CC=C1)S(=O)(=O)N2CCOCC2)/C3=C(C=CC(=C3)Cl)O
How it was run: as §1

[2] = compound: C1=CC(=C(C=C1Cl)C2=NC3=NC=CN=C3C(=N2)NC4=CC=NC=C4)F
How it was run: as §1

[3] = compound: C1=CC(=CC=C1C2=NC3=C(N2)C=C(C=C3)C(=O)N)OC4=CC=C(C=C4)Cl
How it was run: as §1

[4] = compound: C1=CC2=C(C=CC(=C2)/C=C\3/C(=O)NC(=NCC4=CC=CS4)S3)N=C1
How it was run: as §1

[5] = compound: C1=CC2=NC=CN=C2C=C1/C=C/3\C(=O)NC(=O)S3
How it was run: as §1

[6] = compound: C1=CC=C(C=C1)C2=NC(=C(N2)C3=CC=NC=C3)C4=CC(=C(C=C4)Cl)O
How it was run: as §1

[7] = compound: C1=CC=C2C(=C1)C3=NNC4=CC=CC(=C43)C2=O
How it was run: as §1

[8] = compound: C1CCN(C1)C(=O)NC2=CC=CC(=C2)NC3=NC=C(C(=N3)NCCC4=CN=CN4)Br
How it was run: as §1

[9] = compound: C1CN(CCC1(CC2=CC=C(C=C2)Cl)N)C3=NC=NC4=C3C=CN4
How it was run: as §1

Row | Target | log2 fold change (erlotinib) | log2 fold change [1] | log2 fold change [2] | log2 fold change [3] | log2 fold change [4] | log2 fold change [5] | log2 fold change [6] | log2 fold change [7] | log2 fold change [8] | log2 fold change [9]
1 | TMEM179B (UniProt Q7Z7N9) | inactive: 0.042 | inactive: -0.016 | inactive: 0.073 | inactive: 0.032 | inactive: -0.009 | inactive: 0.034 | inactive: -0.107 | inactive: -0.032 | inactive: -0.165 | inactive: -0.005
2 | TM9SF3 (UniProt Q9HD45) | inactive: -0.002 | inactive: 0.03 | inactive: 0.051 | inactive: -0.011 | inactive: -0.005 | inactive: -0.041 | inactive: 0.084 | inactive: -0.011 | inactive: 0.009 | inactive: 0.031
3 | TMEM134 (UniProt Q9H6X4) | inactive: 0.119 | inactive: 0.019 | inactive: 0.189 | inactive: -0.036 | inactive: -0.122 | inactive: -0.203 | inactive: -0.226 | inactive: -0.108 | – | –
4 | TMEM223 (UniProt A0PJW6) | inactive: 0.005 | inactive: 0.052 | inactive: -0.018 | inactive: 0.002 | inactive: -0.009 | inactive: 0.013 | inactive: -0.007 | inactive: 0.01 | inactive: 0.007 | inactive: -0.038
5 | TMOD1 (UniProt P28289) | inactive: 0.005 | inactive: 0 | inactive: -0.013 | inactive: -0.012 | inactive: -0.015 | inactive: 0.085 | inactive: -0.006 | inactive: -0.039 | inactive: -0.031 | inactive: -0.019
6 | TMEM242 (UniProt Q9NWH2) | inactive: -0.074 | inactive: 0.046 | inactive: -0.111 | inactive: 0.1 | inactive: 0.048 | inactive: 0.077 | inactive: -0.039 | inactive: -0.115 | inactive: 0.064 | inactive: -0.025
7 | TMBIM1 (UniProt Q969X1) | inactive: 0.092 | inactive: -0.139 | inactive: 0.122 | inactive: -0.017 | inactive: 0.198 | inactive: -0.025 | active: 0.517 | inactive: -0.069 | inactive: 0.172 | inactive: 0.049
8 | TMED9 (UniProt Q9BVK6) | inactive: 0.075 | inactive: 0.024 | inactive: 0.063 | inactive: -0.04 | inactive: 0.007 | inactive: 0.032 | inactive: -0.018 | inactive: -0.023 | inactive: -0.033 | inactive: 0.037
9 | TMEM222 (UniProt Q9H0R3) | inactive: -0.009 | inactive: 0.092 | inactive: -0.053 | inactive: 0.043 | inactive: 0.037 | inactive: 0.092 | inactive: -0.02 | inactive: -0.005 | inactive: -0.116 | inactive: 0.034
10 | TMEM135 (UniProt Q86UB9) | inactive: 0.105 | inactive: 0.042 | inactive: 0.082 | inactive: -0.014 | inactive: -0.012 | inactive: 0.048 | inactive: -0.031 | inactive: -0.081 | inactive: 0.027 | inactive: 0.082
11 | TMEM9B (UniProt Q9NQ34) | inactive: 0.062 | inactive: -0.044 | inactive: 0.009 | inactive: -0.006 | inactive: 0.055 | inactive: -0.013 | inactive: -0.016 | inactive: -0.016 | inactive: -0.006 | inactive: 0.042
12 | TMEM70 (UniProt Q9BUB7) | inactive: -0.286 | inactive: 0.03 | inactive: 0.023 | inactive: 0.257 | inactive: 0.008 | inactive: -0.09 | inactive: -0.063 | inactive: -0.039 | inactive: -0.007 | inactive: 0.053
13 | TNFAIP1 (UniProt Q13829) | inactive: -0.021 | inactive: -0.019 | inactive: 0.084 | inactive: 0.002 | inactive: 0.015 | inactive: 0.108 | inactive: -0.112 | inactive: 0.052 | inactive: 0.041 | inactive: 0.001
14 | TLN2 (UniProt Q9Y4G6) | inactive: 0.084 | inactive: 0.002 | inactive: 0.099 | inactive: -0.003 | inactive: -0.071 | inactive: 0.048 | inactive: -0.032 | inactive: 0.013 | inactive: -0.016 | inactive: -0.016
15 | TMEM168 (UniProt Q9H0V1) | inactive: 0.014 | inactive: 0.003 | inactive: 0.048 | inactive: 0.007 | inactive: 0.044 | inactive: 0.003 | inactive: 0.062 | inactive: -0.041 | inactive: 0.058 | inactive: 0.001
16 | TMEM120A (UniProt Q9BXJ8) | inactive: -0.036 | inactive: 0.109 | inactive: 0.174 | inactive: 0.053 | inactive: 0 | inactive: 0.236 | inactive: -0.02 | inactive: -0.036 | inactive: -0.071 | inactive: 0.1
17 | TNFAIP8 isoform 4 (UniProt O95379) | inactive: 0.019 | inactive: 0.071 | inactive: 0.087 | inactive: -0.028 | inactive: 0.039 | inactive: 0.017 | inactive: -0.015 | inactive: -0.07 | inactive: 0.003 | inactive: 0.023
18 | TMEM173 (UniProt Q86WV6) | inactive: 0.028 | inactive: 0.018 | inactive: -0.012 | inactive: -0.078 | inactive: 0.068 | inactive: 0.019 | inactive: -0.044 | inactive: -0.032 | inactive: 0.02 | inactive: -0.05
19 | TMEM248 (UniProt Q9NWD8) | inactive: -0.113 | inactive: 0.058 | inactive: -0.067 | inactive: 0.093 | inactive: -0.05 | inactive: 0.022 | inactive: 0.033 | inactive: -0.096 | inactive: 0.085 | inactive: 0.015
20 | TMEM126A (UniProt Q9H061) | inactive: -0.004 | inactive: -0.009 | inactive: 0.018 | inactive: 0.002 | inactive: 0.037 | inactive: 0.022 | inactive: 0.016 | inactive: 0.006 | inactive: 0.016 | inactive: 0.021
21 | TMEM245 (UniProt Q9H330) | inactive: 0 | inactive: -0.005 | inactive: 0.043 | inactive: 0.041 | inactive: -0.037 | inactive: 0.072 | inactive: -0.081 | inactive: -0.007 | inactive: 0.016 | inactive: 0.108
22 | TMEM185B (UniProt Q9H7F4) | inactive: 0.082 | inactive: -0.034 | inactive: -0.062 | inactive: 0.043 | inactive: 0.124 | inactive: 0.061 | inactive: 0.008 | inactive: -0.022 | inactive: -0.095 | inactive: 0
23 | TLK1 (UniProt Q9UKI8) | inactive: 0.012 | inactive: 0.038 | inactive: 0.041 | inactive: -0.012 | inactive: 0.042 | inactive: 0.005 | inactive: 0.01 | inactive: -0.034 | inactive: -0.032 | inactive: -0.014
24 | TMEM63B (UniProt Q5T3F8) | inactive: -0.037 | inactive: 0.063 | inactive: -0.024 | inactive: -0.009 | inactive: -0.066 | inactive: 0.012 | inactive: -0.076 | inactive: -0.033 | inactive: 0.011 | inactive: 0.065
25 | TMED4 (UniProt Q7Z7H5) | inactive: 0.047 | inactive: 0.078 | inactive: 0.061 | inactive: -0.025 | inactive: 0.022 | inactive: 0.054 | inactive: -0.065 | inactive: -0.076 | inactive: -0.031 | inactive: -0.002
26 | TMCO1 (UniProt Q9UM00) | inactive: 0.003 | inactive: 0.03 | inactive: -0.032 | inactive: -0.031 | inactive: 0.064 | inactive: 0.009 | inactive: 0.067 | inactive: -0.06 | inactive: 0.023 | inactive: 0.021
27 | TMEM189 (UniProt A5PLL7) | inactive: 0.052 | inactive: -0.057 | inactive: 0.054 | inactive: -0.038 | inactive: 0.041 | inactive: 0.102 | inactive: 0.132 | inactive: -0.032 | inactive: 0.201 | inactive: -0.023
28 | TMOD2 (UniProt Q9NZR1) | inactive: -0.167 | inactive: 0.038 | inactive: 0.333 | inactive: 0.332 | inactive: -0.015 | inactive: -0.009 | inactive: 0.124 | inactive: -0.028 | inactive: -0.059 | inactive: 0.056
29 | TMEM177 (UniProt Q53S58) | inactive: 0.058 | inactive: 0.044 | inactive: 0.03 | inactive: -0.025 | inactive: 0.062 | inactive: -0.015 | inactive: -0.034 | inactive: 0.01 | inactive: 0.028 | inactive: 0.132
30 | TMX3 (UniProt Q96JJ7) | inactive: -0.007 | inactive: -0.035 | inactive: 0.022 | inactive: -0.008 | inactive: 0.036 | inactive: 0.025 | inactive: -0.038 | inactive: 0 | inactive: -0.009 | inactive: 0.03

An excerpt of these results, as tab-separated lines:
Row	Target	log2 fold change (erlotinib)	log2 fold change [1]	log2 fold change [2]	log2 fold change [3]	log2 fold change [4]	log2 fold change [5]	log2 fold change [6]	log2 fold change [7]	log2 fold change [8]	log2 fold change [9]
16	TMEM120A (UniProt Q9BXJ8)	inactive: -0.036	inactive: 0.109	inactive: 0.174	inactive: 0.053	inactive: 0	inactive: 0.236	inactive: -0.02	inactive: -0.036	inactive: -0.071	inactive: 0.1
17	TNFAIP8 isoform 4 (UniProt O95379)	inactive: 0.019	inactive: 0.071	inactive: 0.087	inactive: -0.028	inactive: 0.039	inactive: 0.017	inactive: -0.015	inactive: -0.07	inactive: 0.003	inactive: 0.023
18	TMEM173 (UniProt Q86WV6)	inactive: 0.028	inactive: 0.018	inactive: -0.012	inactive: -0.078	inactive: 0.068	inactive: 0.019	inactive: -0.044	inactive: -0.032	inactive: 0.02	inactive: -0.05
19	TMEM248 (UniProt Q9NWD8)	inactive: -0.113	inactive: 0.058	inactive: -0.067	inactive: 0.093	inactive: -0.05	inactive: 0.022	inactive: 0.033	inactive: -0.096	inactive: 0.085	inactive: 0.015
20	TMEM126A (UniProt Q9H061)	inactive: -0.004	inactive: -0.009	inactive: 0.018	inactive: 0.002	inactive: 0.037	inactive: 0.022	inactive: 0.016	inactive: 0.006	inactive: 0.016	inactive: 0.021
21	TMEM245 (UniProt Q9H330)	inactive: 0	inactive: -0.005	inactive: 0.043	inactive: 0.041	inactive: -0.037	inactive: 0.072	inactive: -0.081	inactive: -0.007	inactive: 0.016	inactive: 0.108
22	TMEM185B (UniProt Q9H7F4)	inactive: 0.082	inactive: -0.034	inactive: -0.062	inactive: 0.043	inactive: 0.124	inactive: 0.061	inactive: 0.008	inactive: -0.022	inactive: -0.095	inactive: 0
